# Experimental data taken from PubChem BioAssay AID1671190 (National Center for Advancing Translational Sciences (NCATS), 2021).
# Sequences of proteins named here, by UniProt entry; tags and fusion partners are left off. A change or cut given only in a name is not applied to a line headed by its entry.
# UniProt P18054: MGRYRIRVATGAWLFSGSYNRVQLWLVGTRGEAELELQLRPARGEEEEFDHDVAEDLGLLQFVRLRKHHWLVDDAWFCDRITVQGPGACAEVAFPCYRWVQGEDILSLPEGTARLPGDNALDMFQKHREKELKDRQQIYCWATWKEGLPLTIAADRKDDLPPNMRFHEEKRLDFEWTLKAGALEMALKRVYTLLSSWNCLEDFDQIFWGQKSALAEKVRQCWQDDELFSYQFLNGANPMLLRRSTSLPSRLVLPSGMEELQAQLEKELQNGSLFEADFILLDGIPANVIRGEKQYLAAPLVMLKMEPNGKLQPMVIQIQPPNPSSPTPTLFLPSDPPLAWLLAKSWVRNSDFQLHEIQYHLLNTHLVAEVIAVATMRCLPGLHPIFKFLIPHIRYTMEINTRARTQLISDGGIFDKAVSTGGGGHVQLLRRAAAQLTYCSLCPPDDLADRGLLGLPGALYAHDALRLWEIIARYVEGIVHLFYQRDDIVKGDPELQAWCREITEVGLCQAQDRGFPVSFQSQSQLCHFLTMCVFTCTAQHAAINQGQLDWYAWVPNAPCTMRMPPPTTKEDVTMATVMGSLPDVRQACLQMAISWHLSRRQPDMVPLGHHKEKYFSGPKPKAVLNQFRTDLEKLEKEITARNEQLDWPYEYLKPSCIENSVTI
# Among all 580,000 compounds or so, about 6,100 (1.1%) were called active. The inconclusive results got no clear call from the source; some entries with a clear call stand among them for comparison. The call rests on the fitted dose curve; in most records, active means well fitted inhibition curve with a large enough effect; inconclusive means small, poorly fitted or top-dose-only effect, or another doubt; inactive means no such curve, though single readings can be large or run the other way. A potency beside an inconclusive call is a rough fit, not a confirmed value.
# Target: Polyunsaturated fatty acid lipoxygenase ALOX12 (Homo sapiens) (UniProt P18054)
# Assay: Primary qHTS assay for inhibitors of human arachidonate 12S-lipoxygenase (ALOX12): Round 2
# Conditions: purified 12hLO, xylenol orange hydroperoxide absorbance; series mostly up to 108 µM
# Outline: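 Hydroperoxide product was detected by ferrous iron/xylenol orange as the 573 to 405 nm absorbance ratio. Arachidonic acid at 40 uM (final) was turned over for 30 min at room temperature by 150 nM human 12hLO, pH 7.0 Hepes buffer, after 15 min compound preincubation.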
# Potency means the concentration at half of the fitted maximal effect.
row,SMILES,Potency
1,CN1CN(C)c2cccc3cccc1c23,"inconclusive: 79.4 µM [inhibitor, single point]"
2,O=C(/C(=N/N=C/c1ccc(O)c(O)c1O)c1ccccc1)c1ccccc1,active: 14.1 µM
3,COc1cc(CN2CCC(C(=O)N3CCCC(C)C3)CC2)cc(Br)c1O (stereo not given),"inconclusive: 0.631 µM [inhibitor, full curve, poor fit]"
4,OCCNc1nc(-c2ccccc2)c2cc(Cl)ccc2n1,inactive
5,CCOC(=O)C1CCN(C(=O)CCNS(=O)(=O)c2ccc(C)cc2)CC1,inactive
6,COc1ccccc1N=c1scc(-c2ccc(S(=O)(=O)N3CCCC3)cc2)n1C,inactive
7,O=C(CSc1nnc(Nc2ccccc2F)s1)NC1CCCC1,"inconclusive: 100 µM [inhibitor, single point]"
8,COc1ccc(OC)c(NC(=O)Cc2cccs2)c1,"inconclusive: 44.7 µM [inhibitor, partial curve, poor fit]"
9,O=C(NCCC(c1ccccc1)c1ccccc1)NNc1ccccn1,active: 22.4 µM
10,CSc1ccccc1NC(=O)CN(C)C(=O)Cn1c(=O)oc2ccccc21,"inconclusive: 63.1 µM [inhibitor, partial curve, poor fit]"
11,COc1cccc(C(=O)N2CCN(c3nc4cc(C)cc(C)c4cc3C#N)CC2)c1,"inconclusive: 44.7 µM [inhibitor, partial curve, poor fit]"
12,O=C(CCl)NC(NC(=O)CCl)c1ccccc1,"inconclusive: 35.5 µM [inhibitor, partial curve, poor fit]"
13,CCn1cc(Cl)c(C(=O)Nc2nccs2)n1,"inconclusive: 44.7 µM [inhibitor, partial curve, poor fit]"
14,O=C(NCCc1ccccc1)C1Cc2c(-c3ccc(Cl)cc3)ccnc2O1 (stereo not given),"inconclusive: 70.8 µM [inhibitor, single point]"
15,CC(=O)Nc1ccc(S(=O)(=O)N2CCN(CC(=O)NC3CCCC3)CC2)cc1,"inconclusive: 31.6 µM [inhibitor, single point]"
16,COc1ccc(-c2csc(N)c2C#N)cc1,"inconclusive: 31.6 µM [inhibitor, partial curve, poor fit]"
17,c1ccc(COc2ccc(OCCCCN3CCCC3)cc2)cc1,"inconclusive: 0.447 µM [inhibitor, full curve, poor fit]"
18,CCC1CCCCN1C(=O)Cn1cccc1-c1nc(-c2ccc(F)cc2)no1 (stereo not given),inactive
19,O=C(/C=C/c1ccco1)NCC1CCCO1 (stereo not given),inactive
20,CCOC(=O)c1cc(-c2ccccc2)n(-c2cccc(C(=O)N(C)c3ccc(C)cc3)c2)c1C,"inconclusive: 112 µM [inhibitor, partial curve, poor fit]"

# Two records picked at random from the list so far:
row,SMILES,Potency
11,COc1cccc(C(=O)N2CCN(c3nc4cc(C)cc(C)c4cc3C#N)CC2)c1,"inconclusive: 44.7 µM [inhibitor, partial curve, poor fit]"
3,COc1cc(CN2CCC(C(=O)N3CCCC(C)C3)CC2)cc(Br)c1O (stereo not given),"inconclusive: 0.631 µM [inhibitor, full curve, poor fit]"
